# The shares of active, inactive and inconclusive entries below differ from those in the screen. For part of these data: Where the call is inconclusive, the potency comes from a doubtful curve fit. Active and inactive are the calls of the source. The calls were made as follows: active = hit-call score of the fitted dose curve at least 0.9, where 1 is the maximum; inconclusive = response in the unintended direction; inactive = score below 0.9.
# The chains behind the UniProt entries cited, without tags or fusion partners. Where a name states a change or a piece, a line headed by the entry shows the natural chain unless it says otherwise.
# UniProt Q01717: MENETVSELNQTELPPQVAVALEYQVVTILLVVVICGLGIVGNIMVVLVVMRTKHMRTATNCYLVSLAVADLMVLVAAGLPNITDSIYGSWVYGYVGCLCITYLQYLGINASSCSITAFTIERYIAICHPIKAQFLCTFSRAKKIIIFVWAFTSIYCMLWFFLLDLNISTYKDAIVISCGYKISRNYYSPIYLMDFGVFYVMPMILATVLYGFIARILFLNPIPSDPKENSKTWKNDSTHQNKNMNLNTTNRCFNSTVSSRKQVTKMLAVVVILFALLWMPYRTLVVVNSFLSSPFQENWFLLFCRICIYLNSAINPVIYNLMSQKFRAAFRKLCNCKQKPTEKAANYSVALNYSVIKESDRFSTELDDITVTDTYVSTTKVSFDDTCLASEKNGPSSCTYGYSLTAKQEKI
# UniProt P33261, whole entry, looked up: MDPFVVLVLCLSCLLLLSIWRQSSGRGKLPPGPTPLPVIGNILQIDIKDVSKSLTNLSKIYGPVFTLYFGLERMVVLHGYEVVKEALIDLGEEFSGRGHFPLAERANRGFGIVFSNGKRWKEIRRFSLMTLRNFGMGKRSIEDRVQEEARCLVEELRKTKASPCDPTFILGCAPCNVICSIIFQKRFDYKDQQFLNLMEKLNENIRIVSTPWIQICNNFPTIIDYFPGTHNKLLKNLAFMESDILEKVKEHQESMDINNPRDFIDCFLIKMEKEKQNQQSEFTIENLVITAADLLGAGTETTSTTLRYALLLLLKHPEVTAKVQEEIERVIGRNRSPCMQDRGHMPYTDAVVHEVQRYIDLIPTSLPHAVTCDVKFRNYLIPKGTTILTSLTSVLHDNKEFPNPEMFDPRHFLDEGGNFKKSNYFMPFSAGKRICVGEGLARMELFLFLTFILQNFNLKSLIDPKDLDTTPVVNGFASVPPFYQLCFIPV
# UniProt P11712, whole entry, looked up: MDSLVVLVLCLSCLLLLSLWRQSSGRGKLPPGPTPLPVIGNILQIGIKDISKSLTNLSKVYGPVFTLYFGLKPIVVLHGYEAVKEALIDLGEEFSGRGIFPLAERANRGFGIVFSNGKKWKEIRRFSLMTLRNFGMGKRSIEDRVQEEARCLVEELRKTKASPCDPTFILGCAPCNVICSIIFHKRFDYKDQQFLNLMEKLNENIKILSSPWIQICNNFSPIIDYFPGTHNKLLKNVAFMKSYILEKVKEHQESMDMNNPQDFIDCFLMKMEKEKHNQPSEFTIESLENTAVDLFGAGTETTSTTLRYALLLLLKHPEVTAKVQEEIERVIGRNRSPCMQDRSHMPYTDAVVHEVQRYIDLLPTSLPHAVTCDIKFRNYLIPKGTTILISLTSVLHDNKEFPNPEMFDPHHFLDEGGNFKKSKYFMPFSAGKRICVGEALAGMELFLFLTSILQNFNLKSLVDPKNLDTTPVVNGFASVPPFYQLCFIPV
# UniProt Q9UNQ0: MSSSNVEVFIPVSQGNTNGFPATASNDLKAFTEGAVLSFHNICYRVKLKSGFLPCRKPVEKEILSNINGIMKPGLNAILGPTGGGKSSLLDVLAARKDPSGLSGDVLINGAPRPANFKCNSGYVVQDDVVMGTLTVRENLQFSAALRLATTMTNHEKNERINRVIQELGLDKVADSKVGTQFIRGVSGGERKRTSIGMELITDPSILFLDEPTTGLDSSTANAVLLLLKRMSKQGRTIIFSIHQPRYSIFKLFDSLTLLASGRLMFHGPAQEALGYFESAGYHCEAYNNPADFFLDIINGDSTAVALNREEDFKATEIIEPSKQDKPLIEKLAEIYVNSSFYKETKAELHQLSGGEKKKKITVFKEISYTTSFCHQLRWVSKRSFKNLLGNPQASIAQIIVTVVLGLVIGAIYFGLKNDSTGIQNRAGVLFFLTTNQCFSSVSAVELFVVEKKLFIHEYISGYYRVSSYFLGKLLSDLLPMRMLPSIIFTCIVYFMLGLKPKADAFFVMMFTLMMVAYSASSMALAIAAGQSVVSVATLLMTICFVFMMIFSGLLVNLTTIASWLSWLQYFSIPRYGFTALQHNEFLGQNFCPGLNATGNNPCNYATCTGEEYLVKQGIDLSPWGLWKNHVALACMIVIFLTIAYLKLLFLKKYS
# UniProt P04406: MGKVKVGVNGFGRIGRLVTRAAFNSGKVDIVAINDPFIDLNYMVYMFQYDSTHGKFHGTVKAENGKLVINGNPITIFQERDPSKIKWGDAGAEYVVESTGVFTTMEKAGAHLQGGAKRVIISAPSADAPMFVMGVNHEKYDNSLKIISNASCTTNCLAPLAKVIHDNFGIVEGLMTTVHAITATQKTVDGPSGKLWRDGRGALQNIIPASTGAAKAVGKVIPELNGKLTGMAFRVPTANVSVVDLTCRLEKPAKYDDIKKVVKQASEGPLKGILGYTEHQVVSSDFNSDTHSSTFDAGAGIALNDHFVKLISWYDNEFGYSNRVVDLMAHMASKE
# UniProt P10275: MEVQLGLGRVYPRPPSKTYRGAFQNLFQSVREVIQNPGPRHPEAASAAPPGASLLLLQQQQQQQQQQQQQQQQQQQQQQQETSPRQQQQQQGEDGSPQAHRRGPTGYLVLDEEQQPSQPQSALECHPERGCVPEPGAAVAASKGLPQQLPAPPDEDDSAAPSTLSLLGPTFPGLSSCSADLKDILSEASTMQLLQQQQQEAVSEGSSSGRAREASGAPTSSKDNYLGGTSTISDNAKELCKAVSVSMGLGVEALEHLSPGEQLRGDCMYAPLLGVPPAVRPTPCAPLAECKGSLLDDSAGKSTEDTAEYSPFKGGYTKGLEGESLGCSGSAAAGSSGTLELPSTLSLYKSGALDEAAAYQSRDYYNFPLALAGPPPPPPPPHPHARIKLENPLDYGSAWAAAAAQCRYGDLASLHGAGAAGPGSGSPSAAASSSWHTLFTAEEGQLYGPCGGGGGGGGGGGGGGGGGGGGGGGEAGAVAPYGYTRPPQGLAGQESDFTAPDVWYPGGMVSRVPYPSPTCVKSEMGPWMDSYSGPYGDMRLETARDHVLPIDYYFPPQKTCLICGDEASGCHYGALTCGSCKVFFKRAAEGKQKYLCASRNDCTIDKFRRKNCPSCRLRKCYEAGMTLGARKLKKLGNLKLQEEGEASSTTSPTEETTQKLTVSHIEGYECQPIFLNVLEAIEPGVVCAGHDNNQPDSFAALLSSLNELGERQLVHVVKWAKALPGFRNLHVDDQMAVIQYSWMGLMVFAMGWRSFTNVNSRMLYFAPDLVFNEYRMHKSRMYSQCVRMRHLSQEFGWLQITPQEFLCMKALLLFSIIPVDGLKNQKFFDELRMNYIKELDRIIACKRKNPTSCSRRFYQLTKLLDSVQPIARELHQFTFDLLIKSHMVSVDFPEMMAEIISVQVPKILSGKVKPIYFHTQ
# UniProt O75469: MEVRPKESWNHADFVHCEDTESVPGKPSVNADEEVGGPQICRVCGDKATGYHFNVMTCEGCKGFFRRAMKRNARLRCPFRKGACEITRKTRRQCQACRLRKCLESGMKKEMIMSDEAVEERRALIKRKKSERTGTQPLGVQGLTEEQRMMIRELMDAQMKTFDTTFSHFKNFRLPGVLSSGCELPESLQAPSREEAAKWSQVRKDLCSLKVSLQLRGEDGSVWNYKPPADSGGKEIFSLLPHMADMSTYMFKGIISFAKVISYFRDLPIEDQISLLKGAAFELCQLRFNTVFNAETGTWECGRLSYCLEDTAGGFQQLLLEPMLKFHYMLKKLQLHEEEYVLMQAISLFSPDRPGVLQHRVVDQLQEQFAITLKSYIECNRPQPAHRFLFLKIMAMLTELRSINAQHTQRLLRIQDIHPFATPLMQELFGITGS
# UniProt P49884, whole entry, looked up: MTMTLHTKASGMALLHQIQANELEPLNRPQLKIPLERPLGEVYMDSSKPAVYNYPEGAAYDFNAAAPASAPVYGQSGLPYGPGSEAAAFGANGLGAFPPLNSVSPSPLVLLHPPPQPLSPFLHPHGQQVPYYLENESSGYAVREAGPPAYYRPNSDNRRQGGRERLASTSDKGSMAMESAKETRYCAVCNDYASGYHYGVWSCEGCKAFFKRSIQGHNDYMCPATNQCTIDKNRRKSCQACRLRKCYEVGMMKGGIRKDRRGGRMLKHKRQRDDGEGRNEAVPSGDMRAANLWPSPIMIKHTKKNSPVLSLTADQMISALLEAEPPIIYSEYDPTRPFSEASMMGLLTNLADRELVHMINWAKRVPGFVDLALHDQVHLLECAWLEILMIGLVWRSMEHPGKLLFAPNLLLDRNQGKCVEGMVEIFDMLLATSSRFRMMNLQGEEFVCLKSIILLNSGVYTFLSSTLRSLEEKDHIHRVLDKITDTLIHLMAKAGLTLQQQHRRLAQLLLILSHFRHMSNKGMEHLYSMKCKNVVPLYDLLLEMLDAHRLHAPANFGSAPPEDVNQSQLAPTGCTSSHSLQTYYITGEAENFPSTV
# Assays:
# [1] = ATG_Hpa5_TRANS: Attagene TRANS-FACTORIAL HepG2 Assay for human GAL4-Hpa5 Hepatocyte Transcription Factor Basal Promoter (AID 2282975); conditions: HepG2 Attagene GAL4-Hpa5 transcription reporter;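 as to outcome: hits are increases in reporter mRNA over DMSO baseline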
# Procedure, shortened: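 Gain-of-signal versus DMSO is fitted for reporter mRNA quantified by RT-PCR and capillary electrophoresis after 24 h exposure. This endpoint is an internal background marker in transiently transfected HepG2 cells carrying GAL4-UAS reporter units.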
# [2] = target: rat Thyrotropin Releasing Hormone Receptor (TRH), Trhr (gene 25570) (UniProt Q01717); assay: NVS_GPCR_rTRH: NovaScreen (NVS) G Protein-Coupled Receptor Assay for rat Thyrotropin Releasing Hormone Receptor (TRH) (AID 2283329);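 also: hit means lower bound tracer signal versus DMSO baseline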
# Procedure, shortened: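 Rat forebrain membranes; radioligand displacement at TRH receptor by filter-based scintillation counting, read 4 h after dosing. Duplicate single-point screen at 25 uM, actives rerun in concentration series; loss of signal relative to DMSO.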
# [3] = read-out: organic anion transporter (SLCO1B1), SLCO1B1 (gene 10599); assay: CLD_SLCO1B1_6hr: CellzDirect (CLD) Gene Expression Assay for organic anion transporter (SLCO1B1) at 6 hours (AID 2283668);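 also: active means mRNA induction above DMSO baseline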
# Procedure, shortened: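 SLCO1B1 mRNA induction measured 6 h after dosing by quantitative nuclease protection with chemiluminescent read-out, in human primary hepatocyte cultures given chemicals at several concentrations (vehicle 0.2% DMSO). Increase over DMSO baseline fitted; morphology-based cytotoxicity annotated yes/no.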
# [4] = CLD_ACTIN_24hr: CellzDirect (CLD) Gene Expression Assay for Baseline Control (Actin) at 24 hours (AID 2283670)
# Procedure, shortened: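 This 24 h qNPA (S1 nuclease protection, chemiluminescence) actin transcript readout in cultured human liver primary cells serves as baseline control. Signal is fitted upward relative to 0.2% DMSO; chemicals tested at multiple concentrations across two donor preparations.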
# [5] = CLD_ACTIN_6hr: CellzDirect (CLD) Gene Expression Assay for Baseline Control (Actin) at 6 hours (AID 2283676)
# Procedure, shortened: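 Baseline actin transcript level measured by qNPA (S1 nuclease protection, chemiluminescence) in human hepatocyte cultures 6 h after chemical exposure; 0.2% DMSO vehicle as reference, cytotoxicity noted from morphology.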
# [6] = read-out: Cytochrome P450 2C19 (Homo sapiens) (UniProt P33261); assay: CLD_CYP2C19_24hr: CellzDirect (CLD) Gene Expression Assay for xenobiotic metabolism (CYP2C19) at 24 hours (AID 2283687);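 as to outcome: activity means mRNA induction above DMSO vehicle baseline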
# Procedure, shortened: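 CYP2C19 mRNA was quantified by qNPA chemiluminescence after 24 h of daily dosing of cultured human primary hepatocytes from two donors; vehicle was 0.2% DMSO, and increases over DMSO baseline were fitted.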
# [7] = read-out: Cytochrome P450 2C9 (Homo sapiens) (UniProt P11712); assay: CLD_CYP2C9_24hr: CellzDirect (CLD) Gene Expression Assay for xenobiotic metabolism (CYP2C9) at 24 hours (AID 2283688);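 as to AC50: potency for induction meaning a rise in CYP2C9 mRNA over DMSO vehicle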
# Procedure, shortened: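 Induction of CYP2C9 mRNA was quantified by quantitative nuclease protection assay (chemiluminescence), gain of signal versus 0.2% DMSO vehicle, 24 h after dosing. Human primary hepatocytes (two donors) received fresh chemical daily at multiple concentrations; morphology-based cytotoxicity flagged yes/no.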
# [8] = read-out: ABC Transporter (ABCB11), ABCB11 (gene 8647); assay: CLD_ABCB11_48hr: CellzDirect (CLD) Gene Expression Assay for ABC Transporter (ABCB11) at 48 hours (AID 2283697)
# Procedure, shortened: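 Induction of ABCB11 mRNA relative to 0.2% DMSO, measured at 48 h by qNPA chemiluminescence. Cultured human hepatocytes (two donors) received fresh dosing solutions at several concentrations on two consecutive days.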
# [9] = read-out: Cytochrome P450 2C19 (Homo sapiens) (UniProt P33261); assay: CLD_CYP2C19_48hr: CellzDirect (CLD) Gene Expression Assay for xenobiotic metabolism (CYP2C19) at 48 hours (AID 2283700);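 as to outcome: fitted upward so actives raise CYP2C19 mRNA above the 0.2% DMSO vehicle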
# Procedure, shortened: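 CYP2C19 mRNA induction read by chemiluminescent quantitative nuclease protection assay after 48 h, with fresh compound added daily for two days to cultured human liver hepatocytes. Activity fitted upward against 0.2% DMSO vehicle.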
# [10] = read-out: Broad substrate specificity ATP-binding cassette transporter ABCG2 (Homo sapiens) (UniProt Q9UNQ0); assay: CLD_ABCG2_48hr: CellzDirect (CLD) Gene Expression Assay for ABC Transporter (ABCG2) at 48 hours (AID 2283704);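 as to AC50: potency for induction of ABCG2 mRNA above the DMSO baseline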
# Procedure, shortened: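 ABCG2 transcript measured at 48 h by quantitative nuclease protection (chemiluminescent) and fitted for increase relative to 0.2% DMSO. Hepatocyte cultures from separate donors got fresh compound daily over two days; morphology annotated cytotoxicity.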
# [11] = read-out: Glyceraldehyde-3-phosphate dehydrogenase (Homo sapiens) (UniProt P04406); assay: CLD_GAPDH_48hr: CellzDirect (CLD) Gene Expression Assay for Baseline Control (Glyceraldehyde 3-phosphate dehydrogenase) at 48 hours (AID 2283706)
# Procedure, shortened: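 GAPDH baseline-control readout: qNPA chemiluminescent mRNA quantitation in human liver primary cells 48 h after daily dosing on two consecutive days, vehicle 0.2% DMSO; gain of signal fitted against DMSO, cytotoxicity flagged by phase-contrast morphology.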
# [12] = read-out: organic anion transporter (SLCO1B1), SLCO1B1 (gene 10599); assay: CLD_SLCO1B1_48hr: CellzDirect (CLD) Gene Expression Assay for organic anion transporter (SLCO1B1) at 48 hours (AID 2283707)
# Procedure, shortened: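 SLCO1B1 transcript quantified by qNPA with chemiluminescent readout after 48 h of once-daily chemical exposure. Cultured human primary hepatocytes came from two donors, with 0.2% DMSO vehicle; positive-direction fitting against DMSO, cytotoxicity flagged by morphology.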
# [13] = read-out: alkyl and aryl transferase (GSTA2), GSTA2 (gene 2939); assay: CLD_GSTA2_48hr: CellzDirect (CLD) Gene Expression Assay for alkyl and aryl transferase (GSTA2) at 48 hours (AID 2283708);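 also: active means mRNA induction above DMSO vehicle baseline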
# Procedure, shortened: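 GSTA2 mRNA quantified by qNPA chemiluminescence in human primary hepatocyte lysates after 48 h of daily fresh chemical dosing. Increases fitted against 0.2% DMSO vehicle baseline; cytotoxicity from morphology annotated yes/no.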
# [14] = CCTE_Deisenroth_AIME_384WELL_CTox_Active: Cytotoxicity Assessment (CTOX) in CCTE's 384-well Estrogen Receptor Transactivation Assay with AIME metabolic competence (metabolism positive), Deisenroth Lab (AID 2284037);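 also: chemicals first conditioned 2 h by alginate-bound induced rat liver S9 before cells; activity means signal loss indicating cell death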
# Procedure, shortened: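 VM7Luc4E2 breast cells received medium pre-incubated 2 h with chemical over alginate microspheres holding induced male Sprague Dawley rat liver S9; viability read 24 h later by protease-substrate fluorescence. Loss of signal, bidirectional fit, 0.002–200 uM.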
# [15] = CCTE_Deisenroth_AIME_384WELL_CTox_Inactive: Cytotoxicity Assessment (CTOX) in CCTE's 384-well Estrogen Receptor Transactivation Assay without AIME metabolic competence (metabolism negative), Deisenroth Lab (AID 2284039);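 also: cell viability via live-cell protease substrate cleaved to fluorescent probe; cells exposed 24 h to medium preincubated 2 h with alginate-water beads without S9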
# Procedure, shortened: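 VM7Luc4E2 cells, metabolism-negative arm: test chemicals (0.002–200 uM, 10 points) pre-incubated 2 h with alginate-water microspheres, then medium transferred to cells for 24 h. Viability read as protease-substrate cleavage to fluorescent probe; loss-of-signal, bidirectional fitting.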
# [16] = target: Androgen receptor (Homo sapiens) (UniProt P10275); assay: ATG_AR_TRANS: Attagene TRANS-FACTORIAL HepG2 Assay for human Androgen Receptor (AR) (AID 2282973); conditions: HepG2 Attagene TRANS-FACTORIAL AR reporter transcription
# Procedure, shortened: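 HepG2 cells transiently transfected with multiplexed GAL4-UAS reporter units and chimeric NR-Gal4 fusion; 24 h compound exposure. Reporter mRNA measured by RT-PCR, 6-FAM labelling, HpaI digestion and capillary electrophoresis; gain-of-signal fitted relative to DMSO baseline.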
# [17] = target: Nuclear receptor subfamily 1 group I member 2 (Homo sapiens) (UniProt O75469); assay: ATG_PXR_TRANS: Attagene TRANS-FACTORIAL HepG2 Assay for human Pregnane X Receptor (PXR) (AID 2283008)
# Procedure, shortened: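 HepG2 transfected (FuGene 6) with GAL4-UAS reporter units + PXR-Gal4 chimera; dosed 24 h. Total RNA → oligo(dT) RT → PCR → 6-FAM primer extension → HpaI cut → CE. Gain-of-signal vs DMSO.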
# [18] = ATG_XTT_Cytotoxicity: Cytotoxicity Assessment in the Attagene TRANS-FACTORIAL HepG2 Assay (AID 2283584);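 as to AC50: cells exposed to compound for 24 h before reading; active means loss of viability signal versus DMSO baseline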
# Procedure, shortened: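 HepG2 human liver cells, transiently transfected with multiple GAL4-UAS reporter units, were dosed and read at 24 h by XTT as cell number. Loss of signal was fitted relative to DMSO negative control baseline.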
# [19] = target: bovine Estrogen Receptor (ER), ESR1 (gene 407238) (UniProt P49884); assay: NVS_NR_bER: NovaScreen (NVS) Nuclear Receptor Binding Assay for bovine Estrogen Receptor (ER) (AID 2283345);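 also: actives lower the bound radioligand count which means they displace the ER ligand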
# Procedure, shortened: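 Cell-free radioligand binding with bovine uterine membrane extracts, read 18 hours after dosing by scintillation counting. Loss of signal versus DMSO baseline indicates displacement. Primary screen run in duplicate at 25 uM, actives followed in concentration series.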
# [20] = read-out: Cytochrome P450 2C19 (Homo sapiens) (UniProt P33261); assay: CLD_CYP2C19_6hr: CellzDirect (CLD) Gene Expression Assay for xenobiotic metabolism (CYP2C19) at 6 hours (AID 2283678)
# Procedure, shortened: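 CYP2C19 transcript induction was quantified by quantitative nuclease protection assay with chemiluminescent read-out, 6 h after dosing. Cells were primary human hepatocytes from two donor preparations, given fresh dosing solutions daily in 0.2% DMSO vehicle. Activity was relative to DMSO.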
smiles,measurement,setting,value
COC(=O)N(OC)c1ccccc1COc1ccn(-c2ccc(Cl)cc2)n1,outcome,[1],inactive
same,AC50,[2],inconclusive: 25 µM
same,outcome,[3],inactive
same,outcome,[4],inactive
same,AC50,[5],inconclusive: 20 µM
same,outcome,[6],inactive
same,outcome,[7],inactive
same,AC50,[8],active: 35.7 µM
same,AC50,[9],inconclusive: 20 µM
same,AC50,[10],active: 20 µM
same,AC50,[11],inconclusive: 20 µM
same,outcome,[12],inactive
same,AC50,[13],active: 33.8 µM
same,AC50,[14],active: 2.68 µM
same,AC50,[15],active: 19.8 µM
Cc1cc(C)nc(NC(=O)NS(=O)(=O)c2ccccc2C(=O)OC2COC2)n1,AC50,[16],inconclusive: 50 µM
same,AC50,[1],inconclusive: 50 µM
same,AC50,[3],inconclusive: 0.151 µM
same,AC50,[7],inconclusive: 0.646 µM
same,AC50,[12],inconclusive: 20 µM
same,AC50,[13],inconclusive: 0.0755 µM
COc1cc(OC)nc(Sc2cccc(Cl)c2C(=O)O)n1,AC50,[1],inconclusive: 50 µM
same,AC50,[17],inconclusive: 50 µM
same,AC50,[3],inconclusive: 0.589 µM
same,AC50,[4],inconclusive: 20 µM
same,outcome,[9],inactive
same,outcome,[10],inactive
same,outcome,[13],inactive
N#CC(c1ccccc1)c1ccccc1,AC50,[17],active: 4.59 µM
same,AC50,[18],inconclusive: 100 µM
O=[N+]([O-])c1cc(C(F)(F)F)c(Cl)c([N+](=O)[O-])c1Cl,outcome,[19],inactive
same,AC50,[18],active: 57.7 µM
Clc1cccc(C(Cl)(Cl)Cl)n1,outcome,[4],inactive
same,outcome,[20],inactive
same,outcome,[6],inactive
same,AC50,[8],inconclusive: 2.24 µM
same,AC50,[9],inconclusive: 0.0775 µM
same,outcome,[10],inactive
same,outcome,[12],inactive
same,AC50,[14],inconclusive: 0.0002 µM
same,AC50,[15],inconclusive: 1.23 µM
CC(C)(c1cc(Cl)c(O)c(Cl)c1)c1cc(Cl)c(O)c(Cl)c1,outcome,[2],inactive
same,AC50,[14],active: 159 µM
O=C(O)C(F)(F)C(F)(F)C(=O)O,AC50,[16],inconclusive: 0.0136 µM
c1cc2ccc3cccc4ccc(c1)c2c34,outcome,[16],inactive
same,outcome,[14],inactive
CC(C)(c1ccc(O)c(-c2ccccc2)c1)c1ccc(O)c(-c2ccccc2)c1,AC50,[16],inconclusive: 3.71 µM
same,AC50,[18],active: 22.2 µM
c1ccc2c(c1)Nc1ccccc1S2,outcome,[15],inactive
CCCCOCC1CO1 (stereo not drawn),outcome,[17],inactive
same,AC50,[2],inconclusive: 25 µM
same,outcome,[19],inactive
same,AC50,[15],inconclusive: 7.82 µM
O=c1[nH]c(=O)n(Cl)c(=O)n1Cl,AC50,[2],inconclusive: 0.825 µM
same,outcome,[2],inactive
same,AC50,[15],inconclusive: 0.0124 µM
CCN(CC)C1CCCCC1,AC50,[16],inconclusive: 100 µM
same,AC50,[18],inconclusive: 100 µM
[O-][Cl+2]([O-])O,AC50,[17],inconclusive: 48.9 µM
same,AC50,[2],inconclusive: 25 µM
same,AC50,[14],inconclusive: 100 µM
same,outcome,[15],inactive
O=C(NCNC(=O)NC1C(=O)NC(=O)N1CO)NC1C(=O)NC(=O)N1CO (stereo not drawn),AC50,[16],inconclusive: 23.7 µM
same,AC50,[2],inconclusive: 1.32 µM
CNC(=O)/C=C(\C)OP(=O)(OC)OC,AC50,[1],inconclusive: 11.7 µM
same,AC50,[19],inconclusive: 41.5 µM
same,outcome,[3],inactive
same,AC50,[4],inconclusive: 0.00084 µM
same,AC50,[5],inconclusive: 20 µM
same,AC50,[20],inconclusive: 0.0345 µM
same,AC50,[6],inconclusive: 0.00989 µM
same,outcome,[7],inactive
same,outcome,[9],inactive
same,outcome,[12],inactive
same,outcome,[13],inactive
same,outcome,[14],inactive
same,AC50,[15],inconclusive: 24.2 µM
Nc1ccc(Cl)cc1N,AC50,[14],inconclusive: 0.0002 µM
same,outcome,[15],inactive

# 2 neighbouring entries from above:
smiles,measurement,setting,value
Cc1cc(C)nc(NC(=O)NS(=O)(=O)c2ccccc2C(=O)OC2COC2)n1,AC50,[16],inconclusive: 50 µM
same,AC50,[1],inconclusive: 50 µM

# In a second layout: results already given.
smiles	measurement	setting	value
N#CC(c1ccccc1)c1ccccc1	AC50	[17]	active: 4.59 µM
same	AC50	[18]	inconclusive: 100 µM
